## Melanoma cell counts after drug treatment

Source: doi:10.1371/journal.pone.0140310, primary screening data, rounded.

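Human melanoma cells were exposed to a pair of drugs for 72 h in 1,536-well plates and read by automated microscopy after fixing and staining. Each value is the count of nuclei relative to DMSO-treated wells, in %, so that 100 equals the control. Every drug was used at one fixed concentration, the higher of two screened. These are primary screening values without error estimates.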 An unselected part of the screen is shown.

Drug key:
selumetinib (0.075 µM): Cn1cnc2c(F)c(Nc3ccc(Br)cc3Cl)c(C(=O)NOCCO)cc21
lestaurtinib (0.02 µM): C[C@]12O[C@H](C[C@]1(O)CO)n1c3ccccc3c3c4c(c5c6ccccc6n2c5c31)CNC4=O
FK866 (0.05 µM): O=C(/C=C/c1cccnc1)NCCCCC1CCN(C(=O)c2ccccc2)CC1
ZM336372 (10 µM): Cc1ccc(NC(=O)c2cccc(N(C)C)c2)cc1NC(=O)c1ccc(O)cc1
KU-0063794 (0.1 µM): COc1ccc(-c2ccc3c(N4CCOCC4)nc(N4C[C@@H](C)O[C@@H](C)C4)nc3n2)cc1CO
bexarotene (10 µM): C=C(c1ccc(C(=O)O)cc1)c1cc2c(cc1C)C(C)(C)CCC2(C)C
stibogluconate (10 µM): O=C(O)[C@@H]1[O][Sb](=[O])([O][Sb]2(=[O])[O][C@H]([C@H](O)CO)[C@H](O)[C@H](C(=O)O)[O]2)[O][C@H]([C@H](O)CO)[C@@H]1O (stereo partly shown)
U73122 (2 µM): COc1ccc2c(c1)CCC1C2CCC2(C)C(NCCCCCCN3C(=O)C=CC3=O)CCC12 (stereo not shown)
decitabine (0.5 µM): Nc1ncn([C@H]2C[C@H](O)[C@@H](CO)O2)c(=O)n1

Results for FK866 and selumetinib are COLO 792: 32.4; WM451Lu: 71.3. Results for selumetinib and decitabine are COLO 792: 57.4; WM451Lu: 55.9. For KU-0063794 and ZM336372 the values were COLO 792: 86.1; WM451Lu: 94.2.

Results for bexarotene and ZM336372 are COLO 792: 77.8; WM451Lu: 92.1. KU-0063794 and lestaurtinib gave COLO 792: 40.3; WM451Lu: 87.1. Results for ZM336372 and FK866 are COLO 792: 54.2; WM451Lu: 122.

With bexarotene and selumetinib the screen read COLO 792: 66.5; WM451Lu: 58.2. Results for bexarotene and stibogluconate are COLO 792: 81.6; WM451Lu: 80.5. For FK866 and bexarotene the values were COLO 792: 39.3; WM451Lu: 98.2.

With FK866 and KU-0063794 the screen read COLO 792: 64.3; WM451Lu: 93.3. For decitabine and lestaurtinib the values were COLO 792: 46.1; WM451Lu: 88.7. U73122 and bexarotene gave COLO 792: 90.1; WM451Lu: 90.0.

With lestaurtinib and bexarotene the screen read COLO 792: 56.9; WM451Lu: 90.8. Results for selumetinib and lestaurtinib are COLO 792: 45.1; WM451Lu: 61.3. stibogluconate and ZM336372 gave COLO 792: 84.9; WM451Lu: 90.2.

Results for KU-0063794 and decitabine are COLO 792: 72.6; WM451Lu: 74.8. For selumetinib and U73122 the values were COLO 792: 79.9; WM451Lu: 67.6. For stibogluconate and decitabine the values were COLO 792: 86.2; WM451Lu: 89.9.

Results for stibogluconate and selumetinib are COLO 792: 58.8; WM451Lu: 49.9. With decitabine and ZM336372 the screen read COLO 792: 79.0; WM451Lu: 99.9. lestaurtinib and U73122 gave COLO 792: 76.5; WM451Lu: 93.3.

Results for decitabine and U73122 are COLO 792: 72.1; WM451Lu: 87.7. U73122 and FK866 gave COLO 792: 39.6; WM451Lu: 87.3.